These are yes or no findings as the source states them, for the method shown. In cells and extracts the contact can be indirect. Some binding calls cover weakened binding; strength is not graded here.

By UniProt entry, the sequences of proteins in these tests, tags left out. Where a name states a change or a piece, a line headed by the entry shows the natural chain unless it says otherwise.
UniProt P29466: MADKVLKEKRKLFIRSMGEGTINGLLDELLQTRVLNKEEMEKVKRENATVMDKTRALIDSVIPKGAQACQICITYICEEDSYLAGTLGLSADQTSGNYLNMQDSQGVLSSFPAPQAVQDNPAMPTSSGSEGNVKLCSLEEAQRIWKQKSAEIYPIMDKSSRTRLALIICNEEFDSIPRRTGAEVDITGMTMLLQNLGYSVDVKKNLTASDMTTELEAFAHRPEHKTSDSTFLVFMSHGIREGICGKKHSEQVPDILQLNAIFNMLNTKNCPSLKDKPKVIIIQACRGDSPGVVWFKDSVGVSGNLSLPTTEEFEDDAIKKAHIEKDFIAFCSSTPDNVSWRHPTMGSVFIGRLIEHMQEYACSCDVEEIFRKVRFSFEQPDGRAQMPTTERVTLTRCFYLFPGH
UniProt Q9NPP4: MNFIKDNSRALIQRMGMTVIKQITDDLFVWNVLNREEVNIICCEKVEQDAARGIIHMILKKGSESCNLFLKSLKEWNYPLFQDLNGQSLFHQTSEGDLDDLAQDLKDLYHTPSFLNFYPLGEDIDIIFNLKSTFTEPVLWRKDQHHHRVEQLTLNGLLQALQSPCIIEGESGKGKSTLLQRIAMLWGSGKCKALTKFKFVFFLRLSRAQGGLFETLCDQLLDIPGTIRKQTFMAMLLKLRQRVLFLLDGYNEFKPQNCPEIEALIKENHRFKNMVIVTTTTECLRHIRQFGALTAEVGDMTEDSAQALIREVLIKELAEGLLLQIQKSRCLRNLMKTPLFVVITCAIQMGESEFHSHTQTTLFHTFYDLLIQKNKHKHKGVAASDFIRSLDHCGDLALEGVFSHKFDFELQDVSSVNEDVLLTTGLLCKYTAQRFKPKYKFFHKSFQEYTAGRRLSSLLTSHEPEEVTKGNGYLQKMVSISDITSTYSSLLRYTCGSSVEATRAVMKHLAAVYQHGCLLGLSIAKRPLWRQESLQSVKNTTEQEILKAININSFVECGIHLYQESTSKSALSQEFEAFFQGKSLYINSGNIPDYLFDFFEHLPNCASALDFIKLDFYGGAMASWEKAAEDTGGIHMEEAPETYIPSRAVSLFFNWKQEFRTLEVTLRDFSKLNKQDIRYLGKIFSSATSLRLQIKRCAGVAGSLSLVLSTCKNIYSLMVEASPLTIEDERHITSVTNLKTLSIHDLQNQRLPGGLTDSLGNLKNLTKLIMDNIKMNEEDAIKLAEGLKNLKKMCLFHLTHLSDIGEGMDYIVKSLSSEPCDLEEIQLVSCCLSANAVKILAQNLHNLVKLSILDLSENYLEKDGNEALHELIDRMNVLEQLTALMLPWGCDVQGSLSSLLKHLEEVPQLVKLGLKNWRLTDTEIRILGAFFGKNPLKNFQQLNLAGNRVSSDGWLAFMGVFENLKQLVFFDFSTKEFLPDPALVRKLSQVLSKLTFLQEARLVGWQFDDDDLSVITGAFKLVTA

These results are taken from US20030190679A1.

This assay addresses T7-tagged caspase-1 (UniProt P29466). Put plainly: co-immunoprecipitation from 293T lysates (IP anti-T7, blot anti-myc).

In the case of “myc-tagged CARD-12 (from UniProt Q9NPP4 1-1024)”, the binding entry was “binds”.
